Some of these results come from one statement about several compounds together.
Molecular target: T1, human mGluR2 (Homo sapiens, UniProt Q14416)
T1 construct: expressed in transfected cells
Experiment: FLIPR Ca2+ mobilization assay, potentiation of glutamate response
Format: cell-based
Conditions: for minimum fold potentiation of glutamate response: in the presence of an EC20 concentration of glutamate (900 nM); for EC50: stated as 'generally with an EC50 of less than about 1.5 μM', read-out: EC50, potentiating the mGluR2 receptor in the FLIPR assay
Description: Inhibition constants are determined as follows. The compounds of the present invention may be tested in a fluorescence laser imaging plate reader (FLIPR) based assay. This assay is a common functional assay to monitor Ca^2+ mobilization in whole cells expressing recombinant receptor coupled with a promiscuous G-protein. CHO dhfr− cells stably expressing recombinant human mGluR2 and Gα16 loaded with Fluo-4 AM (Invitrogen, Carlsbad Calif.) are treated with dose responses of compounds and the Ca^2+ response is monitored on a FLIPR384 (Molecular Devices, Sunnydale Calif.) for agonist activity. The potentiation response is monitored after a subsequent addition of an EC20 concentration of glutamate (900 nM). The maximum calcium response at each concentration of compound for agonist or potentiation are plotted as dose responses and the curves are fitted with a four parameters logistic equation giving EC50 and Hill coefficient using the iterative non linear curve fitting software program.

Sequences of proteins named here, by UniProt entry; tags and fusion partners are left off. Residues count along the entry.
UniProt Q14416, 19-872: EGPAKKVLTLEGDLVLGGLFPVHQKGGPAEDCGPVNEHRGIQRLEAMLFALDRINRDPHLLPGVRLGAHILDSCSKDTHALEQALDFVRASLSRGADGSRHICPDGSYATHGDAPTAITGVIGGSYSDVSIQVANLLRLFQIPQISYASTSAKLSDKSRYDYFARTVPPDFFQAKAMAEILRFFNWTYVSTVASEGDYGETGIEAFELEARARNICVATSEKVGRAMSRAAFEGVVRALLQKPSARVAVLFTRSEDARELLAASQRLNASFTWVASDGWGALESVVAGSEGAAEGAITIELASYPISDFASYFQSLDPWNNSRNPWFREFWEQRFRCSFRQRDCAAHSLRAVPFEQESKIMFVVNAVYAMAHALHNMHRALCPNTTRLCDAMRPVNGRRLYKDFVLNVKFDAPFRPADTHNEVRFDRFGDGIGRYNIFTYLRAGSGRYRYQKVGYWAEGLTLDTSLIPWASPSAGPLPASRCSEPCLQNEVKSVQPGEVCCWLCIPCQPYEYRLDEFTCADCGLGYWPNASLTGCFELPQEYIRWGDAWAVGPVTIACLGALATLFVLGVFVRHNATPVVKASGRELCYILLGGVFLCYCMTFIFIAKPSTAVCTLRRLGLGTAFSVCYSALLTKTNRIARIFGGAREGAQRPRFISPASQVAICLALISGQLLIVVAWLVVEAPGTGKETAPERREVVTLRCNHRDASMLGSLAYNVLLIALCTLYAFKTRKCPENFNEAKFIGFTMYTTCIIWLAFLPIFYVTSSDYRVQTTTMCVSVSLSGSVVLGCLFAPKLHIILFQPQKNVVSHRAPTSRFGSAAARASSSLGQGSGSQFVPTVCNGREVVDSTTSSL

SMILES | minimum fold potentiation of glutamate response | EC50
Cc1ccc(CNC(=O)[C@@H](C)O)cc1-c1ccc2c(n1)N(C)S(=O)(=O)N2CC1CC1(F)F (some centres unmarked) [Compound 44-4] | ≥ 1.5 fold | < 1500 nM
CN1c2cc(-c3ccccc3C#N)ccc2N(Cc2ccc(OC(F)(F)F)cc2)S1(=O)=O [Compound 10-2, 2-{3-methyl-2,2-dioxido-1-[4-(trifluoromethoxy)benzyl]-1,3-dihydro-2,1,3-benzothiadiazol-5-yl}benzonitrile] | ≥ 1.5 fold | < 1500 nM
CN1c2cc(-c3cccc(N4CCS(=O)(=O)CC4)c3)ccc2N(Cc2ccc(OC(F)(F)F)cc2)S1(=O)=O [Compound 11-1, 5-[3-(1,1-dioxidothiomorpholin-4-yl)phenyl]-3-methyl-1-[4-(trifluoromethoxy)benzyl]-1,3-dihydro-2,1,3-benzothiadiazole 2,2-dioxide] | ≥ 1.5 fold | < 1500 nM
CN1c2cc(-c3cccc(N4CCS(=O)(=O)CC4)c3)ccc2N(CC2CCC2)S1(=O)=O [Compound 8-1, 1-(cyclobutylmethyl)-5-[3-(1,1-dioxidothiomorpholin-4-yl)phenyl]-3-methyl-1,3-dihydro-2,1,3-benzothiadiazole 2,2-dioxide] | ≥ 1.5 fold | < 1500 nM
COCOc1ccc(C#N)c(-c2ccc3c(c2)N(C)S(=O)(=O)N3CC2CC2(F)F)c1 (centres unmarked) [Compound 16-1, 2-{1-[(2,2-difluorocyclopropyl)methyl]-3-methyl-2,2-dioxido-1,3-dihydro-2,1,3-benzothiadiazol-5-yl}-4-(methoxymethoxy)benzonitrile] | ≥ 1.5 fold | < 1500 nM
Cc1ccc(CN2CCN(S(C)(=O)=O)CC2)nc1-c1ccc2c(c1)N(C)S(=O)(=O)N2CC1CC1(F)F (centres unmarked) [Compound 26-7, 1-[(2,2-difluorocyclopropyl)methyl]-3-methyl-5-(3-methyl-6-{[4-(methylsulfonyl)piperazin-1-yl]methyl}pyridin-2-yl)-1,3-dihydro-2,1,3-benzothiadiazole 2,2-dioxide] | ≥ 1.5 fold | < 1500 nM
Cc1cccnc1-c1ccc2c(c1)N(C)S(=O)(=O)N2CC1CC1 [Compound 3-1, 1-(cyclopropylmethyl)-3-methyl-5-(3-methylpyridin-2-yl)-1,3-dihydro-2,1,3-benzothiadiazole 2,2-dioxide] | ≥ 1.5 fold | < 1500 nM
CN1c2nc(-c3cc(CN4CCN(S(C)(=O)=O)CC4)ccc3F)ccc2N(CC2CC2(F)F)S1(=O)=O (centres unmarked) [Compound 41-2, 1-[(2,2-difluorocyclopropyl)methyl]-5-(2-fluoro-5-{[4-(methylsulfonyl)piper-azin-1-yl]methyl}phenyl)-3-methyl-1,3-dihydro[1,2,5]thia-diazolo[3,4-b]pyridine 2,2-dioxide] | ≥ 1.5 fold | < 1500 nM
CN1c2cc(-c3ccccc3C#N)ccc2N(CC2CCC2)S1(=O)=O [Compound 7-2, 2-[1-(cyclobutylmethyl)-3-methyl-2,2-dioxido-1,3-dihydro-2,1,3-benzothiadiazol-5-yl]benzonitrile] | ≥ 1.5 fold | < 1500 nM
Cc1ccc(CNC(=O)Cn2cncn2)cc1-c1ccc2c(n1)N(C)S(=O)(=O)N2CC1CC1(F)F (centres unmarked) [Compound 44-3, N-(3-{1-[(2,2-difluorocyclopropyl)methyl]-3-methyl-2,2-dioxido-1,3-dihydro[1,2,5]thiadiazolo[3,4-b]pyridin-5-yl}-4-methylbenzyl)-2-(1H-1,2,4-triazol-1-yl)acetamide] | ≥ 1.5 fold | < 1500 nM
CN1c2nc(-c3ccc(N4CCN(S(C)(=O)=O)CC4)cc3)ccc2N(CC2CC2(F)F)S1(=O)=O (centres unmarked) [Compound 32-2, 1-[(2,2-difluorocyclopropyl)methyl]-3-methyl-5-{4-[4-(methylsulfonyl)piperazin-1-yl]phenyl}-1,3-dihydro[1,2,5]thiadiazolo[3,4-b]pyridine 2,2-dioxide] | ≥ 1.5 fold | < 1500 nM
CC(=O)N1CCN(Cc2ccc(F)c(-c3ccc4c(n3)N(C)S(=O)(=O)N4CC3CC3(F)F)c2)CC1 (centres unmarked) [Compound 41-1, 1-[4-(3-{1-[(2,2-difluorocyclopropyl)methyl]-3-methyl-2,2-dioxido-1,3-dihydro[1,2,5]thiadiazolo[3,4-b]pyridin-5-yl}-4-fluorobenzyl)piperazin-1-yl]ethanone] | ≥ 1.5 fold | < 1500 nM
CN1c2nc(-c3cccc(C4CCN(S(C)(=O)=O)CC4)c3)ccc2N(CC2CC2(F)F)S1(=O)=O (centres unmarked) [Compound 31-4, 1-[(2,2-difluorocyclopropyl)methyl]-3-methyl-5-{3-[1-(methylsulfonyl)piperidin-4-yl]phenyl}-1,3-dihydro[1,2,5]thiadiazolo[3,4-b]pyridine 2,2-dioxide] | ≥ 1.5 fold | < 1500 nM
CN1c2nc(-c3cccc(CN4CCN(S(C)(=O)=O)CC4)c3)ccc2N(CC2CC2(F)F)S1(=O)=O (centres unmarked) [Compound 40-2, 1-[(2,2-difluorocyclopropyl)methyl]-3-methyl-5-(3-{[4-(methylsulfonyl)piper-azin-1-yl]methyl}phenyl)-1,3-dihydro[1,2,5]thia-diazolo[3,4-b]pyridine 2,2-dioxide] | ≥ 1.5 fold | < 1500 nM
CN1c2nc(-c3ccc(N4CCN(C(=O)c5ccon5)CC4)cc3)ccc2N(CC2CC2(F)F)S1(=O)=O (centres unmarked) [Compound 34-1, 1-[(2,2-difluorocyclopropyl)methyl]-5-{4-[4-(isoxazol-3-ylcarbonyl)piperazin-1-yl]phenyl}-3-methyl-1,3-dihydro[1,2,5]thiadiazolo[3,4-b]pyridine 2,2-dioxide] | ≥ 1.5 fold | < 1500 nM
CN1c2cc(-c3ccccc3C#N)ccc2N(CCCO)S1(=O)=O [Compound 6-2, 2-[1-(3-hydroxypropyl)-3-methyl-2,2-dioxido-1,3-dihydro-2,1,3-benzothiadiazol-5-yl]benzonitrile] | ≥ 1.5 fold | < 1500 nM
CN1c2nc(-c3ccccc3C#N)ccc2N(CC2CC2)S1(=O)=O [Compound 28-5, 2-[1-(cyclopropylmethyl)-3-methyl-2,2-dioxido-1,3-dihydro[1,2,5]thiadiazolo[3,4-b]pyridin-5-yl]benzonitrile] | ≥ 1.5 fold | < 1500 nM
CN1c2cc(-c3cc(Oc4ccnc(C#N)c4)ccc3C#N)ccc2N(Cc2ccc(OC(F)(F)F)cc2)S1(=O)=O [Compound 15-3, 4-(4-cyano-3-{3-methyl-2,2-dioxido-1-[4-(trifluoromethoxy)benzyl]-1,3-dihydro-2,1,3-benzothiadiazol-5-yl}phenoxy)pyridine-2-carbonitrile] | ≥ 1.5 fold | < 1500 nM
CN1c2cc(-c3ccccc3C#N)ccc2N(CC(C)(C)C)S1(=O)=O [Compound 5-2, 2-[1-(2,2-dimethylpropyl)-3-methyl-2,2-dioxido-1,3-dihydro-2,1,3-benzothiadiazol-5-yl]benzonitrile] | ≥ 1.5 fold | < 1500 nM
CN1c2nc(-c3cccc(N4CCN(S(C)(=O)=O)CC4)c3)ccc2N(CC2CC2(F)F)S1(=O)=O (centres unmarked) [Compound 33-1, 1-[(2,2-difluorocyclopropyl)methyl]-3-methyl-5-{3-[4-(methylsulfonyl)piperazin-1-yl]phenyl}-1,3-dihydro[1,2,5]thiadiazolo[3,4-b]pyridine 2,2-dioxide] | ≥ 1.5 fold | < 1500 nM
CC(=O)N1CCN(Cc2ccc(C)c(-c3ccc4c(c3)N(C)S(=O)(=O)N4CC3CC3(F)F)n2)CC1 (centres unmarked) [Compound 26-8, 1-{4-[(6-{1-[(2,2-difluorocyclopropyl)methyl]-3-methyl-2,2-dioxido-1,3-dihydro-2,1,3-benzothiadiazol-5-yl}-5-methylpyridin-2-yl)methyl]piperazin-1-yl}ethanone] | ≥ 1.5 fold | < 1500 nM
CC(=O)N1CCN(Cc2cccc(-c3ccc4c(n3)N(C)S(=O)(=O)N4CC3CC3(F)F)c2)CC1 (centres unmarked) [Compound 40-1, 1-[4-(3-{1-[(2,2-difluorocyclopropyl)methyl]-3-methyl-2,2-dioxido-1,3-dihydro[1,2,5]thiadiazolo[3,4-b]pyridin-5-yl]benzyl)piperazin-1-yl}ethanone] | ≥ 1.5 fold | < 1500 nM
CN1c2nc(-c3ccccc3C#N)ccc2N(CC(C)(C)C)S1(=O)=O [Compound 30-2, 2-[1-(2,2-dimethylpropyl)-3-methyl-2,2-dioxido-1,3-dihydro[1,2,5]thiadiazolo[3,4-b]pyridin-5-yl]benzonitrile] | ≥ 1.5 fold | < 1500 nM
CN1c2cc(-c3ccccc3C#N)ccc2N(CC2CC2)S1(=O)=O [Compound 1-5, 2-[1-(cyclopropylmethyl)-3-methyl-2,2-dioxido-1,3-dihydro-2,1,3-benzothiadiazol-5-yl]benzonitrile] | ≥ 1.5 fold | < 1500 nM
Cc1ccc(C(C)(C)O)cc1-c1ccc2c(c1)N(C)S(=O)(=O)N2CC1CC1 [Compound 18-2, 2-{3-[1-(cyclopropylmethyl)-3-methyl-2,2-dioxido-1,3-dihydro-2,1,3-benzothiadiazol-5-yl]-4-methylphenyl}propan-2-ol] | ≥ 1.5 fold | < 1500 nM
